# In PubChem BioAssay AID1508600 (Functional Genomics Laboratory (NCATS/FGL), 2020):
# Screen size: about 53,000 sequences; about 3,700 (7%) were called active.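 How the source made its calls: active means gene knockdowns whose robust z-score for IL-1 alpha signal is at least 2 or at most -2, so actives lie on both sides; inactive means the rest.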 Some of the results follow.
# Test: Components of the Cytosolic LPS Sensing Pathway: Gene Identification via Genome-wide siRNA Screen;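 further: robust z of the log signal after scaling to non-targeting control siRNA wells of the plate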
# Details: RAW264.7 macrophages, IL-1a HTRF, actives lie on both sides, screened at 100 nM (by protocol), cells primed 5 h with Pam3CSK4 first
# Procedure, shortened: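 Using IL-1a HTRF as read-out, the screen measured release from RAW264.7 cells after 48h siRNA knockdown (100 nM), 5 h Pam3CSK4 priming and 24 h cytosolic LipidA. Values were expressed relative to negative-control wells as robust z-scores.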
row,Sequence,z-score
1,GCUACUACGGCCAUUGUGATT against Fbln2,inactive: -1.39
2,GGACAGGAACCAAAAUGAGTT against Sfxn2,inactive: -1.17
3,GGAAGAAUUUAAGAAGUUCTT against Pdia3,inactive: 1.24
4,GCAUACUUUUGUCAAGUCCTT against Moxd2,inactive: 0.68
5,GCCAUCGAUACCACAACACTT against Slfn8,inactive: -1.61
6,GGCUCCAUUAAACUAAUCATT against Olfr1102,inactive: -0.563
7,GCAGACCCAAAAGCAUUAATT against Zbtb38,inactive: 0.223
8,GCAGUUAUUCUGAAAGCAATT against Olfr1386,inactive: -1.76
9,CCCGGUAUUAAAUUUAAUGTT against Aox4,inactive: 0.807
10,CCAACGUGCAGAAAUGUCUTT against Metrn,inactive: 0.671
11,CCCUGAACAGGUCAUCUGUTT against Ctps2,inactive: 0.822
12,GCGUAAUGCUAGGAGAAGCTT against Celsr3,inactive: -0.659
13,GGACCACUAUAUCUUAACUTT against Cdh23,inactive: 1.12
14,GGGACAAAAGCAAUCAAACTT against H2-M11,active: 2.06
15,GCACAUGUUCCUUACUUAUTT against Calcr,inactive: 0.656
16,GCAUUGCUAUUCAACUCCUTT against Marcks,inactive: -0.427
17,GUUCCUGAGUACCUAUGUCTT against Aqp7,inactive: -0.254
18,GCUGAGUCCAUUGAAGAAGTT against Pebp4,inactive: 0.255
19,GGACAUCACAGCAUAUCGUTT against Peli2,inactive: -1.53
20,GGUGUGAUGCUUGAGUGUCTT against Skint3,active: 2.08
21,GGGUAGUCACUCAAUAAAUTT against Pear1,inactive: -0.54
22,CCUAGCCAUGUGGUCAUAGTT against Tex264,inactive: 1.63

row,Sequence,z-score
1,CCCACUUCUAUUGAGUCUGTT against Ppif,inactive: 0.193
2,GCAAAUAGUUGGGUAGGAGTT against Taz,inactive: -0.77
3,GGUGUGAGGUAAUUUCAGATT against Snx22,inactive: 1.69
4,GGAGUAUCUAUGCUCAAUATT against Olfr794,inactive: -1.49
5,GGUCUUGUAGAAAUUUGCCTT against Slc25a21,inactive: -0.0695
6,GCGUGGAUAGUUUCACAGCTT against Fbp1,inactive: -0.142
7,GGAAGAGAUCCUAAUAAAGTT against Depdc7,inactive: 0.294
8,GCUAGUGCGCAUGUUUCUCTT against Rasgrp2,inactive: 0.621
9,GCUAAUCCAGGUAUUGUCATT against Uba6,inactive: -0.262
10,GGCUUUUUCCUCUACCCACTT against Trhde,inactive: -0.436
11,GGCGAAAUGAACACAAAGCTT against Edf1,inactive: 0.983
12,GCGCAUUCUGAUAUUUUCUTT against Dennd11,inactive: -0.0987
13,GGUUGGCAAUAAGUAUUACTT against Lpin1,inactive: 1.47
14,CCCAGAAUUAAACAUAGCUTT against Rrh,inactive: 0.0181
15,GGCGUGGAAUCACUUUCCATT against Ankrd13b,inactive: -1.15
16,GGAGACACCAGACCAACAATT against Gm5458,inactive: 0.242
17,GGAAGGCAAAUUCAAAUACTT against Serpinc1,inactive: 1.65
18,GGAAGUCAAGAAGAAACCGTT against Morc4,inactive: 0.399
19,GACAGCAUGAAGGACCUCUTT against Il17c,inactive: 0.3
20,CCGUGGCAACUGGUAUUAUTT against Spns3,inactive: -0.548
21,GCUUUCUUUUGCACUUGAATT against Ctc1,inactive: -1.1
22,GGCGCAUCGUGGACUUCUUTT against Slc36a1,inactive: 0.866

row,Sequence,z-score
1,CGUGUGGUGUUGGUAUCAGTT against Spaca1,inactive: 0.853
2,GGUAGACCAGGAUUCAAAGTT against B3galt2,inactive: 0.306
3,GGGAGAAGCGAGCAAUAGATT against Pla2g3,inactive: -0.198
4,CGUUGCAGUCUAAGCUUGUTT against Rabac1,active: 4.44
5,GGACCUUCAGGAAAUGGCUTT against Mrps14,inactive: -0.958
6,CGUGCAAGAAUGUAUUAGATT against Myo5a,inactive: -0.282
7,GCACAAUUGCUCUAGGAUGTT against Slitrk3,inactive: -1.92
8,GCGAGAAGGAUUCACCUUCTT against Atg7,inactive: -0.297
9,CCUUCUCAACAGCGUGAUUTT against Dhx30,inactive: 0.474
10,GCUUGGUUUAACAAACAAGTT against Ppm1a,inactive: 0.504
11,GGACCACAUUACUAUACCATT against Sort1,inactive: 0.098
12,GGAUACUGUCAUGUCUUUATT against Olfr1,inactive: 0.813
13,GGAUGAGAAAGAAAAGCACTT against Mettl1,inactive: -0.615
14,CGUAGAGCUUCUCAUAUUATT against Olfr1436,inactive: -1.48
15,GGAGAUCUAUUGGAUCCAUTT against Trim12a,inactive: 0.337
16,GCUUAUGACUUAAAAGCCCTT against Zfp157,inactive: 0.452
17,GCCUACAUCAUGUAAUAUATT against Cyp2s1,inactive: -0.0444
18,GCCCGUGUGUAAGUGCAAATT against Wfikkn2,active: 2.25
19,GGCAUUUACUUACUGUUCATT against Slc39a10,inactive: -0.331
20,CCGCUGUGAUACCAUAUACTT against Nrn1l,inactive: -1.52
21,GGAGAUCCUUAAGCUGUUGTT against Aen,active: -2.37
22,CGUACCAAAUGCUAACAUUTT against Fam160a2,inactive: 0.429

# Nothing new here: entries from further up.
row,Sequence,z-score
15,GGCGUGGAAUCACUUUCCATT against Ankrd13b,inactive: -1.15
16,GGAGACACCAGACCAACAATT against Gm5458,inactive: 0.242
17,GGAAGGCAAAUUCAAAUACTT against Serpinc1,inactive: 1.65

# Going on with the list:

row,Sequence,z-score
1,CGCGAAUCUAUGAAUCAAATT against Prpf38a,inactive: 1.28
2,GGGAGAAGUUCUGUAUAUUTT against Prdm5,inactive: 0.00692
3,CGAAGAAGAAAUCUUUGGATT against Opn5,inactive: 0.494
4,CCACUAUCCCACCAAUCACTT against Lypd8,inactive: -1.03
5,CCAUCUAUGUGAGGUAUUATT against Tapbpl,inactive: -1.3
6,CCAUUUGACGAAGGUAAUATT against Olfr180,inactive: 0.257
7,GGAAGGUGGUGUCAAAAUGTT against Septin3,inactive: 0.96
8,GGAAAAGGAAGAACUGAUUTT against Sptlc1,inactive: -0.477
9,GCCUUGUGGGAAGCAAAAATT against Pcyt2,inactive: -0.561
10,GGUCCUACCUCAACAUCUGTT against Cap2,inactive: 0.653
11,GGGUCAAUCAGAAGCUAGGTT against Creb3l4,inactive: -0.573
12,GGAGUUUUCAUGCCUACAATT against Odam,active: 2.58
13,CCUUGAGAAUAUGCUAAAATT against Abca15,inactive: 1.62
14,CCGUGGACUAUAACAACUCTT against Mgat5b,inactive: 1.61
15,GGAACCUAAAACACUAAACTT against Zfp938,inactive: -0.0254
16,GGUUACAGAACUCAACAAUTT against Dok5,inactive: -0.0315
17,GGAAGUUAGUGAGUCUAUGTT against Rel,inactive: 1.9
18,GGAAUAGGCCUUCUUGCUGTT against Matr3,inactive: -0.395
19,GGUUCAUUCUCUGCAUUAATT against Rpp40,inactive: -0.92
20,GCGACCAGCUCUUUUAUACTT against Plod1,inactive: 0.642
21,GGGCAUCCUGCUAGGCUUUTT against Adcy8,inactive: -0.191
22,GGAAAAAGCUACUGAGUCCTT against Cx3cl1,inactive: -0.301

row,Sequence,z-score
1,GCUGUUUCUCUAAUAACACTT against Nckap5,inactive: -0.651
2,GCACGCUCUUCAUUCGACATT against Catsperg2,inactive: -0.941
3,GGUUAAAAUUGGCUAAAUGTT against Sertm1,inactive: 1.5
4,GGUUUUCCCACUCUUUCACTT against Smg8,inactive: 0.362
5,GGGUGAGCAAGGUUGUAAUTT against Pdgfb,inactive: 0.793
6,GGAGUCUCCUUAUAUUAAUTT against Alcam,inactive: 0.896
7,GGACAUCGCAUAUCAGCUATT against Alpl,inactive: -1.62
8,GGUUUGCCCAGGAAUACAATT against Adprhl2,inactive: 0.48
9,GGUAUGUGAUACAUCUAUUTT against Zfp52,inactive: -1
10,CCAUCAAAACUUACCUCACTT against Rrp12,inactive: 0.669
11,CCUUCCUAAUCUCUUGUUCTT against Rfc4,inactive: 1.08
12,GGAUGUGCUGACCUUACAGTT against Gaa,active: 2.35
13,GGGUUUUACCAUGGAAUUCTT against Med18,inactive: 0.793
14,GGCCCUCAACCUAAUUAUGTT against Sec24c,inactive: 0.00831
15,GGAAAUGCAUCCAUGCGGUTT against Arhgap26,inactive: 0.404
16,GUAAGUUGUUUGAGGAAAGTT against Defb3,active: 2.08
17,GGAAGAGGCUAUUGCAUCGTT against Atrnl1,inactive: -0.768
18,GGAUGAUCAAAGCAUUGAUTT against Dmtf1,inactive: -0.368
19,GUGGCAGAAAACACUGCCATT against Coa3,inactive: 0.854

# Given bar-delimited: entries from further up.
row | Sequence | z-score
2 | GCACGCUCUUCAUUCGACATT against Catsperg2 | inactive: -0.941
11 | CCUUCCUAAUCUCUUGUUCTT against Rfc4 | inactive: 1.08
18 | GGAUGAUCAAAGCAUUGAUTT against Dmtf1 | inactive: -0.368
